Measurements published in the supplement of paper PMC6078165.
The reference is the same well before dosing, and untreated signal decays as well.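 Labels refer to human fibroblasts, largely primary: uterine (C12385, HUF), lung (H6013), bone (Hs27A), adrenal (HADF), skin (WS1), plus mammary HMF and breast cancer-associated Hs343T. Cancer lines are basal-like or mesenchymal-like triple-negative breast cancer. The paper counts as hits responses shifting over 3x the replicate standard deviation. The tissue of the other fibroblasts is not given here.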

Test system: MDAMB436
Assay: relative JC-1 red fluorescence (viability) vs pre-drug, coculture with fibroblast (fraction); higher = more viable cancer cells
Procedure: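 JC-1 labelled TNBC cells cocultured 1:1 (1,500 cells each) with CellTrace Violet stained primary or stromal fibroblasts in 384-well plates in FluoroBrite medium, treated with one of 42 anticancer drugs at 0.1, 1, 10 or 100 uM. JC-1 red fluorescence (mitochondrial integrity in cancer cells only) was read by plate reader every 8 h for 72 h. Values are normalised to each well's pre-drug value. The stock of one drug was tenfold lower, so its dose labels may be too high.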

Nc1ccn([C@@H]2O[C@H](CO)[C@@H](O)C2(F)F)c(=O)n1 [Gemcitabine]
relative JC-1 red fluorescence
Conditions | 8 h | 16 h | 24 h | 32 h | 40 h | 48 h | 56 h | 64 h | 72 h
0.1 µM, coculture fibroblast: C12385 | 0.8088 | 0.671 | 0.643 | 0.56721 | 0.528 | 0.512 | 0.491 | 0.485 | 0.483
0.1 µM, coculture fibroblast: H6013 | 0.873 | 0.784 | 0.822 | 0.867 | 0.821 | 0.759 | 0.764 | 0.789 | 0.783
0.1 µM, coculture fibroblast: H6019 | 0.7467 | 0.64 | 0.61 | 0.527 | 0.4919 | 0.4779 | 0.4491 | 0.43 | 0.4116
0.1 µM, coculture fibroblast: H6076 | 0.746 | 0.645 | 0.637 | 0.604 | 0.613 | 0.594 | 0.618 | 0.6283 | 0.6308
0.1 µM, coculture fibroblast: H6231 | 0.775 | 0.6773 | 0.646 | 0.58 | 0.5666 | 0.5369 | 0.52775 | 0.518 | 0.509
0.1 µM, coculture fibroblast: HADF | 0.814 | 0.757 | 0.729 | 0.728 | 0.718 | 0.752 | 0.711 | 0.713 | 0.682
0.1 µM, coculture fibroblast: HCFa | 0.767 | 0.663 | 0.636 | 0.616 | 0.592 | 0.611 | 0.548 | 0.541 | 0.489
0.1 µM, coculture fibroblast: HCPF | 0.7673 | 0.682 | 0.6545 | 0.5958 | 0.582 | 0.555 | 0.5315 | 0.512 | 0.5
0.1 µM, coculture fibroblast: HHSteC | 0.886 | 0.815 | 0.821 | 0.821 | 0.827 | 0.857 | 0.818 | 0.801 | 0.747
0.1 µM, coculture fibroblast: HMF | 0.7671 | 0.643 | 0.611 | 0.574 | 0.562 | 0.527 | 0.5456 | 0.517 | 0.5249
0.1 µM, coculture fibroblast: HPFa | 0.93862 | 0.906 | 0.899 | 0.886 | 0.896 | 0.921 | 0.871 | 0.866 | 0.814
0.1 µM, coculture fibroblast: HUF | 0.847 | 0.732 | 0.692 | 0.623 | 0.572 | 0.549 | 0.527 | 0.517 | 0.511
0.1 µM, coculture fibroblast: Hs5 | 0.774 | 0.665 | 0.653 | 0.617 | 0.613 | 0.586 | 0.608 | 0.586 | 0.593
0.1 µM, coculture fibroblast: Hs27A | 0.792 | 0.715 | 0.6829 | 0.6733 | 0.655 | 0.722 | 0.674 | 0.683 | 0.639
0.1 µM, coculture fibroblast: Hs343T | 0.734 | 0.653 | 0.637 | 0.598 | 0.59 | 0.562 | 0.558 | 0.546 | 0.5491
0.1 µM, coculture fibroblast: WS1 | 0.794 | 0.6681 | 0.638 | 0.556 | 0.514 | 0.489 | 0.452 | 0.439 | 0.433
1 µM, coculture fibroblast: C12385 | 0.791 | 0.675 | 0.682 | 0.609 | 0.57 | 0.549 | 0.529 | 0.524 | 0.517
1 µM, coculture fibroblast: H6013 | 0.813 | 0.72 | 0.698 | 0.693 | 0.672 | 0.704 | 0.673 | 0.673 | 0.648
1 µM, coculture fibroblast: H6019 | 0.741 | 0.6546 | 0.6308 | 0.5573 | 0.518 | 0.5101 | 0.4791 | 0.4443 | 0.4251
1 µM, coculture fibroblast: H6076 | 0.778 | 0.653 | 0.657 | 0.619 | 0.589 | 0.566 | 0.57 | 0.56612 | 0.5711
1 µM, coculture fibroblast: H6231 | 0.765 | 0.659 | 0.664 | 0.598 | 0.58 | 0.559 | 0.56 | 0.558 | 0.545
1 µM, coculture fibroblast: HADF | 0.868 | 0.818 | 0.816 | 0.803 | 0.783 | 0.798 | 0.726 | 0.705 | 0.656
1 µM, coculture fibroblast: HCFa | 0.753 | 0.667 | 0.646 | 0.618 | 0.604 | 0.63 | 0.564 | 0.553 | 0.501
1 µM, coculture fibroblast: HCPF | 0.809 | 0.701 | 0.682 | 0.622 | 0.5917 | 0.554 | 0.521 | 0.504 | 0.482
1 µM, coculture fibroblast: HHSteC | 0.815 | 0.745 | 0.719 | 0.675 | 0.668 | 0.67 | 0.624 | 0.602 | 0.563
1 µM, coculture fibroblast: HMF | 0.7556 | 0.63275 | 0.618 | 0.587 | 0.5651 | 0.5409 | 0.543 | 0.5288 | 0.523
1 µM, coculture fibroblast: HPFa | 0.851 | 0.794 | 0.783 | 0.742 | 0.743 | 0.763 | 0.704 | 0.699 | 0.656
1 µM, coculture fibroblast: HUF | 0.838 | 0.744 | 0.74 | 0.672 | 0.63 | 0.611 | 0.594 | 0.583 | 0.585
1 µM, coculture fibroblast: Hs5 | 0.787 | 0.685 | 0.6791 | 0.6339 | 0.6281 | 0.5951 | 0.609 | 0.602 | 0.613
1 µM, coculture fibroblast: Hs27A | 0.781 | 0.722 | 0.707 | 0.709 | 0.712 | 0.792 | 0.733 | 0.743 | 0.701
1 µM, coculture fibroblast: Hs343T | 0.7442 | 0.631 | 0.623 | 0.586 | 0.573 | 0.54 | 0.544 | 0.539 | 0.541
1 µM, coculture fibroblast: WS1 | 0.784 | 0.666 | 0.656 | 0.585 | 0.5463 | 0.529 | 0.517 | 0.5 | 0.498
